Laboratory results from patent US20140086938A1, “METHODS OF INHIBITING TUMOR GROWTH USING TTK ANTAGONISTS” (University Health Network, priority 2007, published 2014).
Entries after “also recorded” stand apart in the source; their conditions may differ. For part of these data: For at least one compound, name, drawing or mass did not settle the structure. Some entries share one result that the patent states for a list of compounds.

Tests used:
[1] = tested on: multiple cancer cell lines; assay: SP600125 SRB cell viability, overall statement; type: cell-based, human; conditions: several breast cancer cell lines, 10 nM to 50 μM, 5 days, GI50 at low μM levels
[2] = tested on: TTK mRNA in MD-MB-468 breast cancer cells; assay: siRNA-mediated knockdown of TTK mRNA, quantitative RT-PCR; type: cell-based, human; conditions: 40 nM siRNA, 48 hours post-transfection, normalized over beta-actin mRNA

Oc1c2ccccc2c2c3c(cccc13)N=N2 [SP600125, anthra(1,9-cd)pyrazol-6(2H)-one 1,9-pyrazoloanthrone] was tested, and the “proliferation / survival of cancer cells” value [1] was “inhibited proliferation of cancer cells in a dose dependent manner; also recorded: reduced survival of breast cancer cells”.
With “siRNA #3: siRNA targeting human TTK: 5′-GCACGUGACUACUUUCAAA-3′ (SEQ ID NO: 5) (listed as RNA, chemistry not given here)” the “TTK knockdown efficiency (TTK mRNA)” value [2] was “greater than 70%”.
In the case of “siRNA #2: siRNA targeting human TTK: 5′-GGUAUUAACUGCCCAAGAA-3′ (SEQ ID NO: 4) (listed as RNA, chemistry not given here)”, the “TTK knockdown efficiency (TTK mRNA)” value [2] is reported as “greater than 70%”.
